# Experimental data published in the supplement of paper PMC10338343.
# ± gives the standard deviation. This is a selection; strong and weak results do not stand in their true shares. Many entries were measured with a wide error. The list shows a part of the results.
# Legend:
# [1] = test system: MIWI (PIWIL1) piRISC loaded with L1MC piRNA (30 nt); test: pre-steady-state target cleavage rate (min^-1); higher = faster piRNA-guided slicing of the target; details: guide: L1MC piRNA 5'p-UAACUAAAUACUAUGCAAGCUGUAGGUCCU
# In short: (§1)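 Cleave-'n-Seq measured uncleaved targets by sequencing after a transcribed, DNA-blocked target RNA library […] was mixed with 1 nM active affinity-purified piRISC holding one synthetic guide, with or without 500 nM GTSF1 partner protein, at 33 °C in HEPES–potassium acetate buffer for 0–8 or 0–960 min. Counts were normalised to depth and to weakly complementary targets, three trials were pooled, and k3 was capped at 0.0001 min^-1. A burst-and-steady-state fit gave the pre-steady-state cleavage rate.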
# [2] = test system: EfPiwi piRISC loaded with L1MC piRNA (26 nt); test: pre-steady-state target cleavage rate (min^-1); guide: L1MC piRNA 5'p-UAACUAAAUACUAUGCAAGCUGUAGG; higher = faster piRNA-guided slicing of the target; details: auxiliary factor: 500 nM Ephydatia muelleri Gtsf1
# In short: as §1
# [3] = test system: MILI (PIWIL2) piRISC loaded with L1MC piRNA (26 nt); test: pre-steady-state target cleavage rate (min^-1); MIWI and MILI are mouse PIWI proteins and EfPiwi is from a freshwater sponge; tags in brackets are library labels; higher = faster piRNA-guided slicing of the target; details: guide: L1MC piRNA 5'p-UAACUAAAUACUAUGCAAGCUGUAGG; auxiliary factor: none (no GTSF1)
# In short: as §1
# [4] = auxiliary factor: 500 nM mouse GTSF1
# [5] = auxiliary factor: none (no GTSF1)
Sequence,"pre-steady-state target cleavage rate [1, 4]","pre-steady-state target cleavage rate [1, 5]",pre-steady-state target cleavage rate [2],pre-steady-state target cleavage rate [3]
UCCUGGAUGUCCUUGCUUUGUAUUUAGUUA,0.00339 ± 0.0037,0.00177 ± 0.0048,0.000814 ± 0.0066,–
UCCUCCAACAGCUUGCAUAGUAUUUAGUAA,0.675 ± 0.03,0.0256 ± 0.0063,0.00668 ± 0.0028,–
UCCUGGUACAGCUUGCUUAGUAUUUAGUUA,0.79 ± 0.037,0.0523 ± 0.011,0.0165 ± 0.0049,–
UCCUCCUACUGCUUGGAUAGUAUUUAGUUA,1.21 ± 0.04,0.0517 ± 0.0073,0.064 ± 0.012,–
UCCUGGAUGUCGUUCCAUAGUAUUUAGAUA,0.00292 ± 0.0046,0.00055 ± 0.011,0.000142 ± 0.021,–
UCCUGGAUGUCGAACCGAUAGUAUUUAGUUA,0.000726 ± 0.0089,0.0005 ± 0.0081,0.000248 ± 0.012,–
UCCUCCAUGAGCUUGCAUAGUAUUUAGUAA,0.471 ± 0.029,0.0262 ± 0.0057,0.00588 ± 0.0024,–
UCCUGGAUGUGCUUGGUAAGUAUUUAGUAA,0.00084 ± 0.013,0.000284 ± 0.01,0.000469 ± 0.0075,–
UCCUGGAUCAGCUUGCAUAGUUAUUACAAA,0.000855 ± 0.013,0.00142 ± 0.005,0.000465 ± 0.008,–
UCCUGCUACAGCUUGGAUAGUAUUUUCAAA,0.0035 ± 0.0045,0.00098 ± 0.0061,0.00307 ± 0.0018,–
UCCUGGAUGUCGAUGCAAAGUAUUUAGUUA,0.00227 ± 0.0043,0.00121 ± 0.0058,0.00133 ± 0.0031,–
UCCUGGAUCUAGCUUGCAUAGUAUUUAGUUA,0.86 ± 0.04,0.0445 ± 0.011,0.0755 ± 0.019,–
UCCUGGAUGUGCUUCGUUAGUAUUUAGUAA,0.000508 ± 0.022,0.000666 ± 0.012,0.000293 ± 0.012,–
UCCUGCUACAGCUCUGCAUAGUAUUUAGUUA,0.851 ± 0.058,0.0138 ± 0.003,0.0151 ± 0.0038,–
UCCUGGAUGUCCUUGCAUAGUAUAUUGUUA,0.00947 ± 0.0039,0.00202 ± 0.0028,0.000676 ± 0.0042,–
UCCUGGAUGAGCUUGGUAAGUAUUUAGUUA,0.0012 ± 0.0071,0.00163 ± 0.0046,0.00205 ± 0.0059,–
UCCUCGUACAGCUUGCAUAGUAUUUAGAAA,0.363 ± 0.029,0.00538 ± 0.0021,0.00711 ± 0.0033,–
UCCUGGAUGUCGAACCUUAGUUUUUAGUUA,0.000338 ± 0.017,0.000385 ± 0.01,0.000337 ± 0.016,–
UCCUGGUUGUGCUUGCAUAGUAUUUAGUAA,0.2 ± 0.022,0.0175 ± 0.0053,0.00401 ± 0.0038,–
UCCUGGAUGUCGUUGCAUAGUAUCUUAGUUA,0.00169 ± 0.0065,0.00106 ± 0.0074,0.000336 ± 0.018,–
UCCUGGAACAGCUUGCAUAGUAUUAAGAUA,–,–,–,0.00168 ± 0.0038
UCCUGGAUGUGCUAGCAUAGAAUUUAGUUA,0.00695 ± 0.0028,0.00207 ± 0.0038,0.000236 ± 0.023,–
UCCUGGAUGUGCUUGGUAAGUAUUUAGUUA,0.00216 ± 0.006,0.00163 ± 0.0062,0.000283 ± 0.02,–
UCCUCCUACAGCUUGCAUAGUACUUUAGUUA,0.588 ± 0.024,0.00867 ± 0.0017,0.0115 ± 0.0051,–
UCCUGGAUGUCGAAGCAUGGUAUUUAGUUA,0.00323 ± 0.0036,0.0014 ± 0.0044,0.00117 ± 0.0056,–

# Reprinted at random: two records from the list, in no set order.
Sequence,"pre-steady-state target cleavage rate [1, 4]","pre-steady-state target cleavage rate [1, 5]",pre-steady-state target cleavage rate [2],pre-steady-state target cleavage rate [3]
UCCUGGAUGUCCUUGCUUUGUAUUUAGUUA,0.00339 ± 0.0037,0.00177 ± 0.0048,0.000814 ± 0.0066,–
UCCUGGUUGUGCUUGCAUAGUAUUUAGUAA,0.2 ± 0.022,0.0175 ± 0.0053,0.00401 ± 0.0038,–
